{"source": "paper PMC5508335", "about": "(Journal of Veterinary Internal Medicine, 2017)", "tested_on": "healthy cats", "conditions": "150 mg once daily for 21 days with placebo or synbiotic; 16 cats"}
{"molecule": "CCC[C@@H]1C[C@@H](C(=O)N[C@@H]([C@H]2O[C@H](SC)[C@H](O)[C@@H](O)[C@H]2O)[C@H](C)Cl)N(C)C1", "note": "[clindamycin]", "values": [{"measurement": "development of antibiotic-associated gastrointestinal signs (AAGS)", "result": "All cats developed AAGS"}]}
